{"source": "the supplement of paper PMC8728848", "experiment_in_all_cases": "glycan array binding signal (z-score within array); higher = stronger binding", "conditions_in_all_cases": "glycan notation: IUPAC condensed, linker removed", "key": {"Kdn(a2-3)Gal(b1-4)Glc": {"target": "Kdn(a2-3)Gal(b1-4)Glc", "in_short": "(§1)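 The Consortium for Functional Glycomics database supplied 3228 glycan arrays, of which those lacking an available protein sequence were dropped. The binding signal, a within-array Z-score, was averaged across arrays of the same protein sequence and across linkers. Negative scores can be read as non-binding.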"}, "Kdn(a2-3)Gal(b1-4)GlcNAc": {"target": "Kdn(a2-3)Gal(b1-4)GlcNAc", "in_short": "as §1"}, "[1]": {"target": "Kdn(a2-3)Gal(b1-4)[Fuc(a1-3)]GlcNAc", "in_short": "as §1"}, "Kdn(a2-6)Gal(b1-4)GlcNAc": {"target": "Kdn(a2-6)Gal(b1-4)GlcNAc", "in_short": "as §1"}, "[2]": {"target": "Man(a1-2)Man(a1-2)Man(a1-3)Man", "in_short": "as §1"}, "[3]": {"target": "Man(a1-2)Man(a1-2)Man(a1-6)[Man(a1-3)]Man", "in_short": "as §1"}, "Man(a1-2)Man(a1-3)Man": {"target": "Man(a1-2)Man(a1-3)Man", "in_short": "as §1"}, "[4]": {"target": "Man(a1-2)Man(a1-3)[Man(a1-2)Man(a1-6)]Man", "in_short": "as §1"}, "[5]": {"target": "Man(a1-2)Man(a1-3)[Man(a1-2)Man(a1-6)]Man(a1-6)[Man(a1-2)Man(a1-2)Man(a1-3)]Man", "in_short": "as §1"}, "[6]": {"target": "Man(a1-2)Man(a1-3)[Man(a1-2)Man(a1-6)]Man(a1-6)[Man(a1-2)Man(a1-2)Man(a1-3)]Man(b1-4)GlcNAc(b1-4)GlcNAc", "in_short": "as §1"}, "[7]": {"target": "Man(a1-2)Man(a1-3)[Man(a1-6)]Man(a1-6)[Man(a1-2)Man(a1-3)]Man(b1-4)GlcNAc(b1-4)GlcNAc", "in_short": "as §1"}, "[8]": {"target": "Man(a1-2)Man(a1-6)[Man(a1-3)]Man(a1-6)[Man(a1-2)Man(a1-2)Man(a1-3)]Man", "in_short": "as §1"}, "[9]": {"target": "Man(a1-2)Man(a1-6)[Man(a1-3)]Man(a1-6)[Man(a1-2)Man(a1-2)Man(a1-3)]Man(b1-4)GlcNAc(b1-4)GlcNAc", "in_short": "as §1"}, "Man(a1-3)[Man(a1-6)]Man": {"target": "Man(a1-3)[Man(a1-6)]Man", "in_short": "as §1"}, "[10]": {"target": "Man(a1-3)[Man(a1-6)]Man(a1-6)[Man(a1-2)Man(a1-3)]Man(b1-4)GlcNAc(b1-4)GlcNAc", "in_short": "as §1"}, "[11]": {"target": "Man(a1-3)[Man(a1-6)]Man(a1-6)[Man(a1-3)]Man", "in_short": "as §1"}, "[12]": {"target": "Man(a1-3)[Man(a1-6)]Man(a1-6)[Man(a1-3)]Man(b1-4)GlcNAc(b1-4)GlcNAc", "in_short": "as §1"}, "[13]": {"target": "Man(a1-3)[Man(a1-6)]Man(b1-4)GlcNAc(b1-4)GlcNAc", "in_short": "as §1"}, "[14]": {"target": "Man(a1-3)[Man(a1-6)]Man(b1-4)GlcNAc(b1-4)[Fuc(a1-6)]GlcNAc", "in_short": "as §1"}, "Man(a1-6)Man": {"target": "Man(a1-6)Man", "in_short": "as §1"}, "Man(b1-4)GlcNAc": {"target": "Man(b1-4)GlcNAc", "in_short": "as §1"}, "MurNAc(b1-4)GlcNAc": {"target": "MurNAc(b1-4)GlcNAc", "in_short": "as §1"}, "Neu5Ac(a2-3)Gal": {"target": "Neu5Ac(a2-3)Gal", "in_short": "as §1"}, "[15]": {"target": "Neu5Ac(a2-3)Gal(b1-3)GalNAc", "in_short": "as §1"}, "[16]": {"target": "Neu5Ac(a2-3)Gal(b1-3)GalNAc(b1-3)Gal(a1-4)Gal(b1-4)Glc", "in_short": "as §1"}, "[17]": {"target": "Neu5Ac(a2-3)Gal(b1-3)GalNAc(b1-4)[Neu5Ac(a2-3)]Gal(b1-4)Glc", "in_short": "as §1"}, "[18]": {"target": "Neu5Ac(a2-3)Gal(b1-3)GalNAc(b1-4)[Neu5Ac(a2-8)Neu5Ac(a2-3)]Gal(b1-4)Glc", "in_short": "as §1"}, "[19]": {"target": "Neu5Ac(a2-3)Gal(b1-3)GalNAc6S", "in_short": "as §1"}, "[20]": {"target": "Neu5Ac(a2-3)Gal(b1-3)GlcNAc", "in_short": "as §1"}, "[21]": {"target": "Neu5Ac(a2-3)Gal(b1-3)GlcNAc(b1-2)Man", "in_short": "as §1"}, "[22]": {"target": "Neu5Ac(a2-3)Gal(b1-3)GlcNAc(b1-2)Man(a1-3)[GlcNAc(b1-4)][Neu5Ac(a2-3)Gal(b1-3)GlcNAc(b1-2)Man(a1-6)]Man(b1-4)GlcNAc(b1-4)GlcNAc", "in_short": "as §1"}, "[23]": {"target": "Neu5Ac(a2-3)Gal(b1-3)GlcNAc(b1-2)Man(a1-3)[Neu5Ac(a2-3)Gal(b1-3)GlcNAc(b1-2)Man(a1-6)]Man(b1-4)GlcNAc(b1-4)GlcNAc", "in_short": "as §1"}, "[24]": {"target": "Neu5Ac(a2-3)Gal(b1-3)GlcNAc(b1-3)Gal(b1-3)GlcNAc", "in_short": "as §1"}, "[25]": {"target": "Neu5Ac(a2-3)Gal(b1-3)GlcNAc(b1-3)Gal(b1-4)GlcNAc", "in_short": "as §1"}, "[26]": {"target": "Neu5Ac(a2-3)Gal(b1-3)GlcNAc(b1-3)GalNAc", "in_short": "as §1"}, "[27]": {"target": "Neu5Ac(a2-3)Gal(b1-3)GlcNAc(b1-4)Gal(b1-4)Glc", "in_short": "as §1"}, "[28]": {"target": "Neu5Ac(a2-3)Gal(b1-3)GlcNAc(b1-6)GalNAc", "in_short": "as §1"}, "[29]": {"target": "Neu5Ac(a2-3)Gal(b1-3)GlcNAc6S", "in_short": "as §1"}}, "note": "Some of the results follow."}
{"binder": "PX14343I-pdi-501-30-501 (Parabacteroides distasonis) (protein) SDQYSTETFWKTKEHASAGIMGCYNALKLWRSLHTMEFDMLTANAMPYNEANGTQAIGKGEHLSTTALIGSLWKNCYVGIGRTNTFIANVGGVDMDESEKAKMVGEAKFLRAFYYLSLVDKFGGVPLIIDAPNADEQAELPRNSKEEVVNQIVKDLEEAAAVLPDTYASSDLGRATKGAALALKARTLLYNSRWAEAAQAAKQVMESGVYQLFNDYRHFFSEDNKYNCEVIFDIEAKLPEYPTDYDQNIWRLNRPAPLKELVDTYLCVDGKTIEESPLYDPTRPYENRDPRLLKSIVCIGYPYLGKTITKEDVATTGFGVKKYTSYEDDVTIPLVERSAFNFILIRYAEVLLTYAEAQNEASGPDQSVYDAINQLRRRPDINMPEVPKGLTKDQMREVIRRERRIELTFEGLYYSDILRWKTAEKENNGMMHNYEGIEVVKRSFNPKRDYLWPIPYNQTVLNPNLEQNPNWD", "values": [{"measurement": "glycan array binding signal (z-score)", "setting": "Kdn(a2-3)Gal(b1-4)Glc", "result": -0.237}, {"measurement": "glycan array binding signal (z-score)", "setting": "Kdn(a2-3)Gal(b1-4)GlcNAc", "result": -0.302}, {"measurement": "glycan array binding signal (z-score)", "setting": "[1]", "result": -0.402}, {"measurement": "glycan array binding signal (z-score)", "setting": "Kdn(a2-6)Gal(b1-4)GlcNAc", "result": 0.035}, {"measurement": "glycan array binding signal (z-score)", "setting": "[2]", "result": -0.22}, {"measurement": "glycan array binding signal (z-score)", "setting": "[3]", "result": 0.234}, {"measurement": "glycan array binding signal (z-score)", "setting": "Man(a1-2)Man(a1-3)Man", "result": 0.611}, {"measurement": "glycan array binding signal (z-score)", "setting": "[4]", "result": -0.805}, {"measurement": "glycan array binding signal (z-score)", "setting": "[5]", "result": -0.598}, {"measurement": "glycan array binding signal (z-score)", "setting": "[6]", "result": 0.365}, {"measurement": "glycan array binding signal (z-score)", "setting": "[7]", "result": 0.075}, {"measurement": "glycan array binding signal (z-score)", "setting": "[8]", "result": -0.091}, {"measurement": "glycan array binding signal (z-score)", "setting": "[9]", "result": -1.02}, {"measurement": "glycan array binding signal (z-score)", "setting": "Man(a1-3)[Man(a1-6)]Man", "result": 0.631}, {"measurement": "glycan array binding signal (z-score)", "setting": "[10]", "result": 0.28}, {"measurement": "glycan array binding signal (z-score)", "setting": "[11]", "result": 0.084}, {"measurement": "glycan array binding signal (z-score)", "setting": "[12]", "result": 0.18}, {"measurement": "glycan array binding signal (z-score)", "setting": "[13]", "result": -0.365}, {"measurement": "glycan array binding signal (z-score)", "setting": "[14]", "result": -0.538}, {"measurement": "glycan array binding signal (z-score)", "setting": "Man(a1-6)Man", "result": 0.339}, {"measurement": "glycan array binding signal (z-score)", "setting": "Man(b1-4)GlcNAc", "result": -0.706}, {"measurement": "glycan array binding signal (z-score)", "setting": "MurNAc(b1-4)GlcNAc", "result": -0.518}, {"measurement": "glycan array binding signal (z-score)", "setting": "Neu5Ac(a2-3)Gal", "result": 0.524}, {"measurement": "glycan array binding signal (z-score)", "setting": "[15]", "result": -0.237}, {"measurement": "glycan array binding signal (z-score)", "setting": "[16]", "result": 0.694}, {"measurement": "glycan array binding signal (z-score)", "setting": "[17]", "result": -0.336}, {"measurement": "glycan array binding signal (z-score)", "setting": "[18]", "result": -1.31}, {"measurement": "glycan array binding signal (z-score)", "setting": "[19]", "result": -0.135}, {"measurement": "glycan array binding signal (z-score)", "setting": "[20]", "result": -0.433}, {"measurement": "glycan array binding signal (z-score)", "setting": "[21]", "result": -0.179}, {"measurement": "glycan array binding signal (z-score)", "setting": "[22]", "result": -0.745}, {"measurement": "glycan array binding signal (z-score)", "setting": "[23]", "result": 0.031}, {"measurement": "glycan array binding signal (z-score)", "setting": "[24]", "result": -0.739}, {"measurement": "glycan array binding signal (z-score)", "setting": "[25]", "result": -0.206}, {"measurement": "glycan array binding signal (z-score)", "setting": "[26]", "result": -0.262}, {"measurement": "glycan array binding signal (z-score)", "setting": "[27]", "result": -0.555}, {"measurement": "glycan array binding signal (z-score)", "setting": "[28]", "result": -0.663}, {"measurement": "glycan array binding signal (z-score)", "setting": "[29]", "result": 0.182}]}
